{
  "source": "PubChem BioAssay AID504834",
  "about": "(National Center for Advancing Translational Sciences (NCATS), 2011)",
  "note": "Out of some 320,000 compounds screened, about 22,000 (6.9%) were called active. Inconclusive means that the source gave no clear call. Such entries were picked first, then a sample of the others. Calls follow the shape of the dose curve; as a rule, active = well fitted inhibition curve with a large enough effect; inconclusive = small, poorly fitted or top-dose-only effect, or another doubt; inactive = no such curve, though single readings can be large or run the other way. Where the call is inconclusive, the potency comes from a doubtful curve fit. % is scaled to controls: 0 for no effect and ±100 for the full control effect; potency is read from the fitted curve at half-maximal effect.",
  "data": [
    {"test": "Primary qHTS for delayed death inhibitors of the malarial parasite plastid, 96 hour incubation", "conditions": "P. falciparum luciferase reporter growth; series mostly up to 28.7 µM; activity change, negative = inhibition: at the top concentration", "procedure,_shortened": "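Infected RBCs, 2% Hct / 0.05% parasitemia final; luciferase-reporter P. falciparum; cpd 96 h, 37 C, 5% CO2; luciferase detection reagent; luminescence.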", "values": [
      {"smiles": "CC1CC1C(=O)OCC(=O)Nc1cccc([N+](=O)[O-])c1", "note": "(centres undefined)", "activity change, negative = inhibition": "inactive: 18.4%"},
      {"smiles": "CCOCCCN(C(=O)Cn1nnc(-c2ccc(C)o2)n1)C(C(=O)NC1CCCC1)c1ccco1", "note": "(centres undefined)", "Potency": "inconclusive: 11.7 µM [inhibitor, single point]"},
      {"smiles": "CCN(CC)c1cc(C)c2cc(NC(=O)c3ccccc3OC)ccc2n1", "Potency": "active: 9.28 µM"},
      {"smiles": "CCn1nc(NC(=O)C(C)C)c2cc3cccc(C)c3nc21", "Potency": "inconclusive: 18.5 µM [inhibitor, single point]"},
      {"smiles": "COc1ccccc1CCN1C(=S)NC(C)(C)CC1(C)O", "note": "(centres undefined)", "Potency": "active: 9.28 µM"},
      {"smiles": "N#Cc1cnc(Sc2ccccc2)nc1", "Potency": "active: 0.0329 µM"},
      {"smiles": "Cc1nc2ccccn2c1-c1ccnn1S(=O)(=O)c1ccc(F)cc1", "Potency": "inconclusive: 18.5 µM [inhibitor, single point]"},
      {"smiles": "Cc1cccc(C)c1NC(=S)NN(Cc1ccccc1)c1ccccc1", "Potency": "active: 4.65 µM"},
      {"smiles": "Cc1ccc(S(=O)(=O)/N=C(/Nc2ccc3[nH]c(=O)[nH]c3c2)c2ccc(F)cc2)cc1", "activity change, negative = inhibition": "inactive: -13%"},
      {"smiles": "Cc1cc(OCC(=O)Nc2ccccc2C(N)=O)c2c(C)cc(=O)oc2c1", "activity change, negative = inhibition": "inactive: 64.8%"},
      {"smiles": "O=C(O)CCCNC(=O)/C(=C\\C=C\\c1ccccc1)NC(=O)c1ccccc1Cl", "activity change, negative = inhibition": "inactive: 475%"},
      {"smiles": "Cc1cc(/C=C2/NC(=O)N(Cc3ccccc3F)C2=O)c(C)n1-c1ccccn1", "Potency": "inconclusive: 18.5 µM [inhibitor, single point]"},
      {"smiles": "CN(c1ccccc1)S(=O)(=O)c1cccc(C(=O)OCC(=O)NCCCN2CCCC2=O)c1", "Potency": "inconclusive: 1.65 µM [inhibitor, partial curve, poor fit]"},
      {"smiles": "CN(C)CCCN(Cc1ccccc1)C(=S)Nc1ccc(F)c(Cl)c1", "Potency": "inconclusive: 18.5 µM [inhibitor, single point]"},
      {"smiles": "CSc1ccccc1NC(=O)c1cc(-c2cccnc2)nc2ccc(Br)cc12", "Potency": "inconclusive: 18.5 µM [inhibitor, single point]"},
      {"smiles": "O=C(CNC(=O)C12CC3CC(CC(C3)C1)C2)N1CCN(S(=O)(=O)/C=C/c2ccccc2)CC1", "Potency": "active: 9.28 µM"},
      {"smiles": "C=CCOc1ccc(/C=C2/C(=N)N3N=C(CC(=O)N4CCCC4)SC3=NC2=O)cc1OC", "activity change, negative = inhibition": "inactive: 24.3%"},
      {"smiles": "Cc1cc(C)c(OCCNC(=O)c2ccccc2Sc2ccccc2C#N)c(C)c1", "Potency": "inconclusive: 13.1 µM [inhibitor, partial curve, poor fit]"},
      {"smiles": "CCOC(=O)c1c(C)[nH]c(C(=O)OCC(=O)N(CC(C)C)C2CCS(=O)(=O)C2)c1C", "note": "(centres undefined)", "Potency": "inconclusive: 18.5 µM [inhibitor, single point]"},
      {"smiles": "O=c1nc2ccccn2c2ccc(S(=O)(=O)N3CCCCC3)cc12", "Potency": "active: 6.57 µM"},
      {"smiles": "CCOc1ccc(NC(=O)C(C)Oc2ccccc2C(=O)Nc2cccc(Cl)c2Cl)cc1", "note": "(centres undefined)", "Potency": "inconclusive: 18.5 µM [inhibitor, single point]"},
      {"smiles": "COc1ccc(C(=O)NC(NC(=O)c2ccc(OC)c(OC)c2)c2ccccc2F)cc1OC", "Potency": "inconclusive: 18.5 µM [inhibitor, single point]"},
      {"smiles": "CC(=N/O)/C(C)=N\\NC(=O)c1ccccn1", "activity change, negative = inhibition": "inactive: -6.94%"},
      {"smiles": "COc1ccc(-c2c(C#Cc3ccsc3)c3cc(-c4ccc(OC)c(F)c4)ccc3n2C)cc1", "Potency": "inconclusive: 2.94 µM [inhibitor, single point]"},
      {"smiles": "O=C1NCCN(Cc2c(F)cccc2Cl)C1CC(=O)N1CCCO1", "note": "(centres undefined)", "Potency": "inconclusive: 0.147 µM [inhibitor, full curve, poor fit]"},
      {"smiles": "CCc1nn(C(CC)C(=O)NCCc2ccc(OC)cc2OC)c(=O)c2cc3occc3n12", "note": "(centres undefined)", "activity change, negative = inhibition": "inactive: 2.55%"},
      {"smiles": "CC12CC3CC(C)(C1)CC(Nc1nc(N4CCOCC4)nc4ccccc14)(C3)C2", "Potency": "active: 1.31 µM"},
      {"smiles": "COc1ccc(S(=O)(=O)N(C)c2ccc(C(=O)Nc3ccccc3C(=O)N3CCOCC3)cc2)cc1OC", "Potency": "inconclusive: 18.5 µM [inhibitor, single point]"},
      {"smiles": "Cc1cc(C)c(-n2c(O)c(/C=N/N3CCCCC3c3cccnc3)c(=O)[nH]c2=O)c(C)c1", "note": "(centres undefined)", "activity change, negative = inhibition": "inactive: -51.4%"},
      {"smiles": "O=S(=O)(NC1CCCCC1N1CCCCC1)c1ccccc1", "note": "(centres undefined)", "Potency": "inconclusive: 3.29 µM [inhibitor, full curve, poor fit]"},
      {"smiles": "Cc1cccc(OP(=O)(Oc2ccccc2)OC(c2ccccc2)C(F)(F)F)c1", "note": "(centres undefined)", "Potency": "inconclusive: 6.57 µM [inhibitor, partial curve]"},
      {"smiles": "Cc1nc(C)c2c(c1C(F)(F)F)-c1ccccc1C2(F)F", "Potency": "active: 11.7 µM"},
      {"smiles": "CN(C)Cc1c(C(=O)Nc2ccccc2)[nH]c2ccccc12", "Potency": "active: 9.28 µM"},
      {"smiles": "Cc1ccc(Cn2nnnc2CN2CCC(NC(=O)c3ccccc3F)CC2)cc1", "Potency": "inconclusive: 14.7 µM [inhibitor, partial curve, poor fit]"},
      {"smiles": "Cc1ccc(NC(=Nc2ccc(Br)cc2)N2CCOCC2)cc1C", "Potency": "inconclusive: 10.4 µM [inhibitor, single point]"},
      {"smiles": "Cc1ccc(CN(C)C(=O)c2cc(COc3cccc(C(F)(F)F)c3)on2)o1", "activity change, negative = inhibition": "inactive: 28.3%"},
      {"smiles": "COc1ccc(O)c(C=NCC(C)N=Cc2cc(OC)ccc2O)c1", "note": "(centres undefined)", "Potency": "inconclusive: 7.38 µM [inhibitor, partial curve, poor fit]"},
      {"smiles": "CC(C)(C)c1ccc(OCC(O)CN(CCO)CC(O)Cn2ccc3ccccc32)cc1", "note": "(centres undefined)", "Potency": "inconclusive: 18.5 µM [inhibitor, single point]"},
      {"smiles": "Cc1cc(OC(=O)N(C)C)nc(-c2ccc(C)c(Cl)c2)n1", "Potency": "inconclusive: 13.1 µM [inhibitor, single point]"},
      {"smiles": "Cc1cccc2cc(/C=N/NC(=O)c3ccccc3O)c(Cl)nc12", "Potency": "inconclusive: 18.5 µM [inhibitor, single point]"},
      {"smiles": "O=C(CSc1nc(C2CC2)nc2ccccc12)N1c2ccccc2Sc2ccc(C(F)(F)F)cc21", "Potency": "inconclusive: 18.5 µM [inhibitor, single point]"},
      {"smiles": "CC(C)(C)NC(=S)N1CCC(C(=O)c2ccc(Cl)cc2)CC1", "Potency": "active: 3.29 µM"},
      {"smiles": "O=c1c2c(-c3ccccc3)ccnc2[nH]n1-c1ccccc1", "Potency": "inconclusive: 18.5 µM [inhibitor, single point]"},
      {"smiles": "CC(C)C[C@H](NC(=O)c1[nH]cnc1C(=O)N[C@@H](C)C(=O)OC(C)(C)C)C(=O)OCc1ccccc1", "Potency": "inconclusive: 14.7 µM [inhibitor, single point]"}
    ]}
  ]
}
